Structures can show the parent of a compound that is named as a salt. Some of the results follow. The calls rarely recur for the same compound in another form.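 Kinases were expressed as nanoluciferase fusions in K562 cells and luminescence was read every 4 h between 2 and 18 h as percent of control, DMSO set to 100% and a positive control to 0%. A time point counts as decreased when the signal drops significantly (2 sigma). The hit call is the authors' own, does not follow from the count of time points alone, and its rule is not shown.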
How the values were obtained:
Assay in all cases: kinase-Nluc reporter destabilization hit call (1 = scored as downregulated) (binary); higher = compound decreases kinase abundance
Conditions in all cases: K562; 2-18 h
[1] = molecular target: EGFR (UniProt P00533)
[2] = molecular target: EGFR_G719S (UniProt P00533)
[3] = molecular target: EGFR_G719S_T790M (UniProt P00533)
[4] = molecular target: EGFR_L718V (UniProt P00533)
[5] = molecular target: EGFR_L858R (UniProt P00533)
[6] = molecular target: EGFR_L861Q (UniProt P00533)
[7] = molecular target: EGFR_T790M (UniProt P00533)
[8] = molecular target: EPHA2 (UniProt P29317)
[9] = molecular target: ERBB3 (UniProt P21860)
[10] = molecular target: ERBB4_R711C (clone: ERBB4_mut) (UniProt Q15303)
[11] = molecular target: ERN1 (UniProt O75460)
[12] = molecular target: FGFR1 (UniProt P11362)
[13] = molecular target: FGFR2 (UniProt P21802)
[14] = molecular target: FGFR3 (UniProt P22607)
[15] = molecular target: FGR (UniProt P09769)
[16] = molecular target: FLT3 (UniProt P36888)
[17] = molecular target: FYN (UniProt P06241)
[18] = molecular target: GSK3A (UniProt P49840)
[19] = molecular target: HER2 (UniProt P04626)
[20] = molecular target: INSRR (UniProt P14616)

The chains behind the UniProt entries cited, without tags or fusion partners. Where a name states a change or a piece, a line headed by the entry shows the natural chain unless it says otherwise.
UniProt P29317, whole entry: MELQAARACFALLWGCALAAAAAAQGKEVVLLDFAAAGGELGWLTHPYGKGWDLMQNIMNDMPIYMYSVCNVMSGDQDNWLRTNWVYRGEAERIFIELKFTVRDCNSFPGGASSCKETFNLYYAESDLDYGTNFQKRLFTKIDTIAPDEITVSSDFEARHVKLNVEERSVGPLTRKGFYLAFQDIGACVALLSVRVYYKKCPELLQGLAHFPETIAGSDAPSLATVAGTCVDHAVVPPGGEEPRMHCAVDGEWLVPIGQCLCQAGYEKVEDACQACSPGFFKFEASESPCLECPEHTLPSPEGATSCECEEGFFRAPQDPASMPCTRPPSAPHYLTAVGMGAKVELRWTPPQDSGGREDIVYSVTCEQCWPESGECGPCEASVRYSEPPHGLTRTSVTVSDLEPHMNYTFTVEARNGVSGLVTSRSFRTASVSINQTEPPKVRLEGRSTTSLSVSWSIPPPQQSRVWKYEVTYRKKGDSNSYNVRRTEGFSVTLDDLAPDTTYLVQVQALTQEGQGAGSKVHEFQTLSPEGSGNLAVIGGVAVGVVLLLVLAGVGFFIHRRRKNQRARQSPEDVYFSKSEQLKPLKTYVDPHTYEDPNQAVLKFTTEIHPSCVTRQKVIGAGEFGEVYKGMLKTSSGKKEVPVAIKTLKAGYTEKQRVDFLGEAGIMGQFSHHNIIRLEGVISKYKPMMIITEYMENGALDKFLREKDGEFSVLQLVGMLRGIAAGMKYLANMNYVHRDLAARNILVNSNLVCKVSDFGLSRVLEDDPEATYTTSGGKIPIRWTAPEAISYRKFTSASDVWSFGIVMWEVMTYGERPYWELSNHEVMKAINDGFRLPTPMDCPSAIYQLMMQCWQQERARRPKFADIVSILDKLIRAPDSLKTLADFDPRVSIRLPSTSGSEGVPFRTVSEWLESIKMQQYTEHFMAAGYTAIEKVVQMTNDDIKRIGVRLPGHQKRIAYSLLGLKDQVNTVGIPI
UniProt O75460: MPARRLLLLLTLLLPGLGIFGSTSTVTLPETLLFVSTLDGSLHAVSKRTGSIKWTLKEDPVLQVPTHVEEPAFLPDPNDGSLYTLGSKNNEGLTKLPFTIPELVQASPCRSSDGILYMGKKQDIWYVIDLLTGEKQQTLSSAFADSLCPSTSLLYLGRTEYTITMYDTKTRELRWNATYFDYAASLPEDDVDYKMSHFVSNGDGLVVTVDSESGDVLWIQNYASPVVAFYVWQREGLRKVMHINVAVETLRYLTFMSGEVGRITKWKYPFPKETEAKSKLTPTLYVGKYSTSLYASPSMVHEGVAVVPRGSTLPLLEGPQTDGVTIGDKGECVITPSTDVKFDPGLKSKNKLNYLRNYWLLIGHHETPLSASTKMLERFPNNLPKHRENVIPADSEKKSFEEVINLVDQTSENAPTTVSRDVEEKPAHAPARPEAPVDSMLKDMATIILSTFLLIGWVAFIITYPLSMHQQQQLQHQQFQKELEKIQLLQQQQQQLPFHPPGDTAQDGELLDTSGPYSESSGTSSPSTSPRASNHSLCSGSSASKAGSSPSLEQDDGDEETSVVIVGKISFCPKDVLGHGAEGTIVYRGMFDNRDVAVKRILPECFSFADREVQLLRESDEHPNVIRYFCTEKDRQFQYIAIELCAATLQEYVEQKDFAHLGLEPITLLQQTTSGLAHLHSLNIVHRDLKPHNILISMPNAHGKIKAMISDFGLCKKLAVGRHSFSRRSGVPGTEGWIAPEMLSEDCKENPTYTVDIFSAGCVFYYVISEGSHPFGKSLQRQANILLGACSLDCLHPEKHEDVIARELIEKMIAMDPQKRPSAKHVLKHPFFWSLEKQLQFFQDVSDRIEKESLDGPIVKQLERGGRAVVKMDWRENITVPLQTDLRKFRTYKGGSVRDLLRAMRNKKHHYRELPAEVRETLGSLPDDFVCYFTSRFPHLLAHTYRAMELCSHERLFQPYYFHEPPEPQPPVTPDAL
UniProt P11362, whole entry, looked up: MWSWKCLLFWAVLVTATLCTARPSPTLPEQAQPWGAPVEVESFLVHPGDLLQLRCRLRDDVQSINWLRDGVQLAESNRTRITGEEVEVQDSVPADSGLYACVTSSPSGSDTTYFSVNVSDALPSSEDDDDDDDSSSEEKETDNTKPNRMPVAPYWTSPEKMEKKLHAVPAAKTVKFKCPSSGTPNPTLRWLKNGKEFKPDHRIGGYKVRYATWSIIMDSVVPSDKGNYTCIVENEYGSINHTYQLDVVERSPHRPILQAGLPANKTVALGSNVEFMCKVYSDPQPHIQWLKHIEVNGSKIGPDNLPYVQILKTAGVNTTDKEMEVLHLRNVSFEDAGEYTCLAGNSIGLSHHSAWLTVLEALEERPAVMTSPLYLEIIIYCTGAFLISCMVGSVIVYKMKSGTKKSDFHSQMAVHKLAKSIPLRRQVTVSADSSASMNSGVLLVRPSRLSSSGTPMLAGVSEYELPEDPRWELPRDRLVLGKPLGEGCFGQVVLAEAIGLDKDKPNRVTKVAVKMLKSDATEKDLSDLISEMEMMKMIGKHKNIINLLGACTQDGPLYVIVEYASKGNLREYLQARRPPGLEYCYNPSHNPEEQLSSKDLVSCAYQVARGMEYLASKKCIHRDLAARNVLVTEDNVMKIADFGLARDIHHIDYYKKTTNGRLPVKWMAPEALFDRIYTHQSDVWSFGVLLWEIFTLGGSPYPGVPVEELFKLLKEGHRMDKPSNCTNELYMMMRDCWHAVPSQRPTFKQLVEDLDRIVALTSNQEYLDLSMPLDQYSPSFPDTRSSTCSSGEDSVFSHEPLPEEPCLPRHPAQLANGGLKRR
UniProt P21802, whole entry, looked up: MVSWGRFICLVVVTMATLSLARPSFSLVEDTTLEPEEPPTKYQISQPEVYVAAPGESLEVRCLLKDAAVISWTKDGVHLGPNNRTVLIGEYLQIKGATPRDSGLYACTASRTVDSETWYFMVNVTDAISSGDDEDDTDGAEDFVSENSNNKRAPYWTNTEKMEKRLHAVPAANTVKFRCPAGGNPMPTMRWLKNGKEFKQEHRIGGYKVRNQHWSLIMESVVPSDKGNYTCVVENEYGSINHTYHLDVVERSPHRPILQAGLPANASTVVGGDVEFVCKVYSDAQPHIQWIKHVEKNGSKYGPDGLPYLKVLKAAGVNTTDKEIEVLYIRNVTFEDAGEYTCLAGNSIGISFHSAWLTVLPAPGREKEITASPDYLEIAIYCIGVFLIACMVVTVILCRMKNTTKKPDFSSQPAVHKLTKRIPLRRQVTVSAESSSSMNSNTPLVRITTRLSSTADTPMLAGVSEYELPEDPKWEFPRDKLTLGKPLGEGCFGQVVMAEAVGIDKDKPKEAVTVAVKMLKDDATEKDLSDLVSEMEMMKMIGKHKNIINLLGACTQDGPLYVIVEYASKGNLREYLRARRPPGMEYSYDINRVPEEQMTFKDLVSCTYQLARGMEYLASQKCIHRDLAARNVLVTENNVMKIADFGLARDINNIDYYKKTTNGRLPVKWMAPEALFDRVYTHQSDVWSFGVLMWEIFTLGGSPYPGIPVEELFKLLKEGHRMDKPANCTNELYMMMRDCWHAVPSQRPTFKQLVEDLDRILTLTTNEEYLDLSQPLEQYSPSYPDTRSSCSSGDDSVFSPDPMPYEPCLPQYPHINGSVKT
UniProt P22607, whole entry, looked up: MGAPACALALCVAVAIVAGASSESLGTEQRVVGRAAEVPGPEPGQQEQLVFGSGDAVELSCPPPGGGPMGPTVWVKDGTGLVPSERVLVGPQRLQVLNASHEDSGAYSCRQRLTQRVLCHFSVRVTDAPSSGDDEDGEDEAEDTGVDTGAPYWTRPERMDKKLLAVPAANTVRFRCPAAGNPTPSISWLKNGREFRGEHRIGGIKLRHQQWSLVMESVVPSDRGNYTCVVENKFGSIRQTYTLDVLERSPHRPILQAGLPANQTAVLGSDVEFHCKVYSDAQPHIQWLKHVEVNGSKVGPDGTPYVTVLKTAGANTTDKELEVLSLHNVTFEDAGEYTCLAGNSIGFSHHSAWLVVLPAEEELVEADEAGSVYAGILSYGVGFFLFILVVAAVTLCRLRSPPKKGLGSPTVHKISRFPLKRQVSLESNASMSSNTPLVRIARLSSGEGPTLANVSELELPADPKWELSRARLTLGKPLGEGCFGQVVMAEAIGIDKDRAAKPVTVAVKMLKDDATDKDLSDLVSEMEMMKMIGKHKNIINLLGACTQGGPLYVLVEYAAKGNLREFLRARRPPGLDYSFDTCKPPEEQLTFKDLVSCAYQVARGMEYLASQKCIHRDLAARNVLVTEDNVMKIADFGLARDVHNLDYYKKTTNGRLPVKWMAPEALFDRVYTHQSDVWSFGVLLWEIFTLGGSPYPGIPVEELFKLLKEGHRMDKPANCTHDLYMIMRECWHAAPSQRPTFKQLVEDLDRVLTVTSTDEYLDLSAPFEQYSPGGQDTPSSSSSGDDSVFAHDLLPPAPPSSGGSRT
UniProt P36888, whole entry: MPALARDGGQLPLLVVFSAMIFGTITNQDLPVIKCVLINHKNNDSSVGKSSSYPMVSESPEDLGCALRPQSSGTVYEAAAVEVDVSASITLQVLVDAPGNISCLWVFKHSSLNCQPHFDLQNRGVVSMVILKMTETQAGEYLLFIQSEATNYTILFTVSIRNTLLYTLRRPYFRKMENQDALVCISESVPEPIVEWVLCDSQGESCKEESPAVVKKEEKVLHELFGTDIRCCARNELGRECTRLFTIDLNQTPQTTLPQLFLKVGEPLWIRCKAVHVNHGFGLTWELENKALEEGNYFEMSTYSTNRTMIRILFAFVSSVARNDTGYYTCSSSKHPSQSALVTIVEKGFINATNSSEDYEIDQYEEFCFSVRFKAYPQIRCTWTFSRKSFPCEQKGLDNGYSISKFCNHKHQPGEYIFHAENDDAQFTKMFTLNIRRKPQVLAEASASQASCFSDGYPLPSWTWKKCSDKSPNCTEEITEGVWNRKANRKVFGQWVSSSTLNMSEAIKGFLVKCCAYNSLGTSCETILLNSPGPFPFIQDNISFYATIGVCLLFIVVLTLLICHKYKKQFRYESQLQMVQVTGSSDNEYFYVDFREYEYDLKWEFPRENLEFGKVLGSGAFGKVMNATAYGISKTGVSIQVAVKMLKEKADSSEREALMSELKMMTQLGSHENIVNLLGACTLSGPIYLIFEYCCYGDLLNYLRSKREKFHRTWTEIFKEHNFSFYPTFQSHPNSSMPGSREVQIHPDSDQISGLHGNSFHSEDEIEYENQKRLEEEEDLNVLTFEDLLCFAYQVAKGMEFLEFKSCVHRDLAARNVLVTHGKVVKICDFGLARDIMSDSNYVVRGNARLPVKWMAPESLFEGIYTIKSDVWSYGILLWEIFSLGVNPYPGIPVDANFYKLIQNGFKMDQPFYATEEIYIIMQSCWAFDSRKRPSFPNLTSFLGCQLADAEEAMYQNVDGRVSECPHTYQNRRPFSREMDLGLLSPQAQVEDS
UniProt P06241, whole entry, looked up: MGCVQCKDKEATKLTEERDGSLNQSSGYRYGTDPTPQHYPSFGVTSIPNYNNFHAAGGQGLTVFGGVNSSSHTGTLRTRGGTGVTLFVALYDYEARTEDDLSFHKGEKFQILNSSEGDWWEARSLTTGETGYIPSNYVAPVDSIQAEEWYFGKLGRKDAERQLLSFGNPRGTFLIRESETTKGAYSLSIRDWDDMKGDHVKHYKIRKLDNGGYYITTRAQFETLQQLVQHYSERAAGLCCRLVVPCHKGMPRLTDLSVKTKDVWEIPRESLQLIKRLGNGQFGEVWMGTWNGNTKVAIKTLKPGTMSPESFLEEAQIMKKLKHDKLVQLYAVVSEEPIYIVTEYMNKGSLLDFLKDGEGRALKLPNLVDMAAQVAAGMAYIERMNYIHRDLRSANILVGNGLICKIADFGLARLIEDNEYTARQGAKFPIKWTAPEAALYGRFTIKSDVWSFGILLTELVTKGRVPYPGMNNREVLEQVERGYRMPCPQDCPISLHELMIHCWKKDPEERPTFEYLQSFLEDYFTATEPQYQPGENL
UniProt P49840: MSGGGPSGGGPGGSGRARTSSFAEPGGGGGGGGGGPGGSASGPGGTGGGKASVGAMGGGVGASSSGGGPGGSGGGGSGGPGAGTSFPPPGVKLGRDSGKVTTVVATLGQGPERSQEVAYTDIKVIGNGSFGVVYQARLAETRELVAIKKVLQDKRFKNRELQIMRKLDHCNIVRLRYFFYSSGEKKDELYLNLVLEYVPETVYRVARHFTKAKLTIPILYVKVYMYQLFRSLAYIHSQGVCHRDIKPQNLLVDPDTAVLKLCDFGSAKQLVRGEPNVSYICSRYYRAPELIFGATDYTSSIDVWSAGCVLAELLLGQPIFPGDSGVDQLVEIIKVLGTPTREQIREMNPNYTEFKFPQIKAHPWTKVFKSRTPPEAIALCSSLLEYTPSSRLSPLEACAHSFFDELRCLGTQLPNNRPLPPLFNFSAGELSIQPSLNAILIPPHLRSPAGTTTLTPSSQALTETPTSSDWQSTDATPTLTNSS

Measured: kinase-Nluc reporter destabilization hit call

CC[C@@](C)(Nc1ccnc(-c2c[nH]c3ncccc23)n1)C(=O)NCC(F)(F)F [Decernotinib] (10 µM)
inactive: [1] 0 | [2] 0 | [3] 0 | [4] 0 | [5] 0 | [6] 0 | [7] 0 | [8] 0 | [9] 0 | [10] 0 | [11] 0 | [12] 0 | [13] 0 | [14] 0 | [15] 0 | [16] 0 | [17] 0 | [18] 0 | [19] 0 | [20] 0

Cc1ccc(NC(=O)c2ccc(CN(CCN(C)C)C(=O)c3cccnc3)cc2)cc1Nc1nccc(-c2cccnc2)n1 [PDGFRα kinase inhibitor 1] (10 µM)
inactive: [1] 0 | [2] 0 | [3] 0 | [4] 0 | [5] 0 | [6] 0 | [7] 0 | [8] 0 | [9] 0 | [10] 0 | [11] 0 | [12] 0 | [13] 0 | [14] 0 | [15] 0 | [16] 0 | [17] 0 | [18] 0 | [19] 0 | [20] 0

C[C@@H]1O[C@@H](O[C@@H]2[C@@H](O)[C@H](OCCc3ccc(O)c(O)c3)O[C@H](CO)[C@H]2OC(=O)/C=C/c2ccc(O)c(O)c2)[C@H](O)[C@H](O)[C@H]1O [Verbascoside] (10 µM)
inactive: [1] 0 | [2] 0 | [3] 0 | [4] 0 | [5] 0 | [6] 0 | [7] 0 | [8] 0 | [9] 0 | [10] 0 | [11] 0 | [12] 0 | [13] 0 | [14] 0 | [15] 0 | [16] 0 | [17] 0 | [18] 0 | [19] 0 | [20] 0

Pulled one by one from above (2):
CC[C@@](C)(Nc1ccnc(-c2c[nH]c3ncccc23)n1)C(=O)NCC(F)(F)F [Decernotinib] (10 µM)
inactive: [1] 0 | [2] 0 | [3] 0 | [4] 0 | [5] 0 | [6] 0 | [7] 0 | [8] 0 | [9] 0 | [10] 0 | [11] 0 | [12] 0 | [13] 0 | [14] 0 | [15] 0 | [16] 0 | [17] 0 | [18] 0 | [19] 0 | [20] 0

Cc1ccc(NC(=O)c2ccc(CN(CCN(C)C)C(=O)c3cccnc3)cc2)cc1Nc1nccc(-c2cccnc2)n1 [PDGFRα kinase inhibitor 1] (10 µM)
inactive: [1] 0 | [2] 0 | [3] 0 | [4] 0 | [5] 0 | [6] 0 | [7] 0 | [8] 0 | [9] 0 | [10] 0 | [11] 0 | [12] 0 | [13] 0 | [14] 0 | [15] 0 | [16] 0 | [17] 0 | [18] 0 | [19] 0 | [20] 0

More entries.

Cc1cccc2c3c(ccc12)C(=O)C1=C(OCC1C)C3=O (stereo not given) [Dihydroisotanshinone I] (2.5 µM)
inactive: [1] 0 | [2] 0 | [3] 0 | [4] 0 | [5] 0 | [6] 0 | [7] 0 | [8] 0 | [9] 0 | [10] 0 | [11] 0 | [12] 0 | [13] 0 | [14] 0 | [15] 0 | [16] 0 | [17] 0 | [18] 0 | [19] 0 | [20] 0

CCN(CC)c1ccc2cc(-c3nc4cc(C)ccc4o3)c(=O)oc2c1 (10 µM)
inactive: [1] 0 | [2] 0 | [3] 0 | [4] 0 | [5] 0 | [6] 0 | [7] 0 | [8] 0 | [9] 0 | [10] 0 | [11] 0 | [12] 0 | [13] 0 | [14] 0 | [15] 0 | [16] 0 | [17] 0 | [18] 0 | [19] 0 | [20] 0

CNC(=O)c1ccccc1Oc1nc(Nc2cc(OC)c(OC)c(OC)c2)ncc1Br (2.5 µM)
inactive: [1] 0 | [2] 0 | [3] 0 | [4] 0 | [5] 0 | [6] 0 | [7] 0 | [8] 0 | [9] 0 | [10] 0 | [11] 0 | [12] 0 | [13] 0 | [14] 0 | [15] 0 | [16] 0 | [17] 0 | [18] 0 | [19] 0 | [20] 0

C=CCc1ccc(O)c(-c2ccc(O)c(CC=C)c2)c1 [Honokiol] (10 µM)
inactive: [1] 0 | [2] 0 | [3] 0 | [4] 0 | [5] 0 | [6] 0 | [7] 0 | [8] 0 | [9] 0 | [10] 0 | [11] 0 | [12] 0 | [13] 0 | [14] 0 | [15] 0 | [16] 0 | [17] 0 | [18] 0 | [19] 0 | [20] 0

CCN(CC)CCC(=O)N1N=C(c2c(-c3ccccc3)c3cc(Br)ccc3[nH]c2=O)CC1c1ccc(Br)cc1 (stereo not given) (2.5 µM)
inactive: [1] 0 | [2] 0 | [3] 0 | [4] 0 | [5] 0 | [6] 0 | [7] 0 | [8] 0 | [9] 0 | [10] 0 | [11] 0 | [12] 0 | [13] 0 | [14] 0 | [15] 0 | [16] 0 | [17] 0 | [18] 0 | [19] 0 | [20] 0

NC(=O)N1CCC(CC(=O)N2CCC([C@H]3c4ncc(Br)cc4CCc4cc(Cl)cc(Br)c43)CC2)CC1 [Lonafarnib] (2.5 µM)
inactive: [1] 0 | [2] 0 | [3] 0 | [4] 0 | [5] 0 | [6] 0 | [7] 0 | [8] 0 | [9] 0 | [10] 0 | [11] 0 | [12] 0 | [13] 0 | [14] 0 | [15] 0 | [16] 0 | [17] 0 | [18] 0 | [19] 0 | [20] 0

Cc1cccc(-c2[nH]c(C(C)(C)C)nc2-c2ccc3nccnc3c2)n1 (10 µM)
inactive: [1] 0 | [2] 0 | [3] 0 | [4] 0 | [5] 0 | [6] 0 | [7] 0 | [8] 0 | [9] 0 | [10] 0 | [11] 0 | [12] 0 | [13] 0 | [14] 0 | [15] 0 | [16] 0 | [17] 0 | [18] 0 | [19] 0 | [20] 0

Cn1cc(-c2cnc3cnn(S(=O)(=O)c4cnc5ccc(-c6cnn(C)c6)cn45)c3c2)cn1 [Glumetinib] (10 µM)
inactive: [1] 0 | [2] 0 | [3] 0 | [4] 0 | [5] 0 | [6] 0 | [7] 0 | [8] 0 | [9] 0 | [10] 0 | [11] 0 | [12] 0 | [13] 0 | [14] 0 | [15] 0 | [16] 0 | [17] 0 | [18] 0 | [19] 0 | [20] 0

CCn1c(=O)c(-c2cc[nH]n2)cc2c(C)nc(N)nc21 [Voxtalisib] (10 µM)
inactive: [1] 0 | [2] 0 | [3] 0 | [4] 0 | [5] 0 | [6] 0 | [7] 0 | [8] 0 | [9] 0 | [10] 0 | [11] 0 | [12] 0 | [13] 0 | [14] 0 | [15] 0 | [16] 0 | [17] 0 | [18] 0 | [19] 0 | [20] 0

Nc1cccc(-c2cc3c(Oc4cccc(O)c4)ncnc3[nH]2)c1 (10 µM)
active: [13] 1
inactive: [1] 0 | [2] 0 | [3] 0 | [4] 0 | [5] 0 | [6] 0 | [7] 0 | [8] 0 | [9] 0 | [10] 0 | [11] 0 | [12] 0 | [14] 0 | [15] 0 | [16] 0 | [17] 0 | [18] 0 | [19] 0 | [20] 0

CCCCCCCC/C=C\CCCCCCCCCCCC(=O)O [Erucic acid] (10 µM)
inactive: [1] 0 | [2] 0 | [3] 0 | [4] 0 | [5] 0 | [6] 0 | [7] 0 | [8] 0 | [9] 0 | [10] 0 | [11] 0 | [12] 0 | [13] 0 | [14] 0 | [15] 0 | [16] 0 | [17] 0 | [18] 0 | [19] 0 | [20] 0

c1ccc(-c2nc(=NCCN3CCOCC3)sn2-c2ccccc2)cc1 [VP3.15 (dihydrobromide)] (10 µM)
inactive: [1] 0 | [2] 0 | [3] 0 | [4] 0 | [5] 0 | [6] 0 | [7] 0 | [8] 0 | [9] 0 | [10] 0 | [11] 0 | [12] 0 | [13] 0 | [14] 0 | [15] 0 | [16] 0 | [17] 0 | [18] 0 | [19] 0 | [20] 0

Cn1ncc2cc(-c3cnc(N)c(Cl)c3N3CCC4(CCNC4=O)CC3)ccc21 (10 µM)
inactive: [1] 0 | [2] 0 | [3] 0 | [4] 0 | [5] 0 | [6] 0 | [7] 0 | [8] 0 | [9] 0 | [10] 0 | [11] 0 | [12] 0 | [13] 0 | [14] 0 | [15] 0 | [16] 0 | [17] 0 | [18] 0 | [19] 0 | [20] 0

Cc1ccc(Oc2nc3cc(-c4ccc(-c5ccccc5)cc4)c(Cl)cc3[nH]2)cc1C(=O)O (10 µM)
inactive: [1] 0 | [2] 0 | [3] 0 | [4] 0 | [5] 0 | [6] 0 | [7] 0 | [8] 0 | [9] 0 | [10] 0 | [11] 0 | [12] 0 | [13] 0 | [14] 0 | [15] 0 | [16] 0 | [17] 0 | [18] 0 | [19] 0 | [20] 0

C=CC(=O)N1CCC[C@H](n2c(=O)n(-c3ccc(Oc4ccccc4)cc3)c3c(N)ncnc32)C1 [ONO-4059 (analog)] (10 µM)
inactive: [1] 0 | [2] 0 | [3] 0 | [4] 0 | [5] 0 | [6] 0 | [7] 0 | [8] 0 | [9] 0 | [10] 0 | [11] 0 | [12] 0 | [13] 0 | [14] 0 | [15] 0 | [16] 0 | [17] 0 | [18] 0 | [19] 0 | [20] 0

Reference: the supplement of paper PMC12823440, “Inhibitors supercharge kinase turnover through native proteolytic circuits” (Nature, 2025)
